PubChem BioAssay AID1159578, Peter MacCallum Cancer Centre | 2015
Aim: 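Knock-downs that alter how fast lymphatic endothelial cells migrate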 (primary screen). System: human lymphatic endothelial cells. Reagents: siRNA pool against human genes, 40 nM. Duration: 48 h after transfection. Read-out: 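High-content imaging of dye-stained cells in a scratch assay measures filled wound area and nuclei per well; duplicate means given as ratio to mock and robust z-score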. Reading the numbers: migration robust z-score: higher = faster migration into the scratch; migration relative to mock: higher = more scratch area covered than mock; nuclei per well: higher = more cells in the well. Hit rule: 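Pools averaging fewer than 3300 nuclei are never called; remaining pools count as changed when migration robust z lies outside -2 to 2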. Calls: active = migration changed; inactive = no migration change, or too few cells.
This is an unselected part of about 18,000 deposited reagents. Over the whole deposit, about 1,030 (5.7%) were called active. 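Inactive calls also include pools with fewer than 3300 nuclei, whose migration was not assessed.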 Raw values vary from plate to plate and are shown uncorrected.

target gene | migration robust z-score | migration class with cell-count check | migration relative to mock | nuclei per well, duplicate mean | Outcome
R3HCC1L | -0.37 | migration z between -2 and 2; enough cells | 0.79 | 5766 | inactive
SLC22A15 | -0.47 | migration z between -2 and 2; enough cells | 0.72 | 5072 | inactive
IFIT5 | -1.75 | migration z between -2 and 2; enough cells | 0.43 | 3922 | inactive
GLRX3 | -0.26 | migration z between -2 and 2; enough cells | 0.76 | 5578 | inactive
TNKS | -0.7 | migration z between -2 and 2; enough cells | 0.67 | 3826 | inactive
LINC02910 | 0.76 | migration z between -2 and 2; enough cells | 1.08 | 5362 | inactive
MAST3 | -2.08 | migration z below -2; enough cells | 0.4 | 3834 | active
GLIPR1L1 | 0.11 | migration z between -2 and 2; enough cells | 0.91 | 5676 | inactive
GBGT1 | 0.6 | migration z between -2 and 2; enough cells | 0.92 | 6250 | inactive
AMBN | 0.31 | migration z between -2 and 2; enough cells | 0.96 | 5567 | inactive
GUSB | 0.72 | migration z between -2 and 2; enough cells | 0.94 | 5548 | inactive
OR52R1 | 1.54 | migration z between -2 and 2; enough cells | 1.29 | 5582 | inactive
PRMT9 | -0.19 | migration z between -2 and 2; enough cells | 0.84 | 5006 | inactive
IL17RB | -1.58 | migration z between -2 and 2; enough cells | 0.5 | 4426 | inactive
SRF | 0.36 | migration z between -2 and 2; enough cells | 0.88 | 4576 | inactive
TRUB2 | 0.43 | migration z between -2 and 2; enough cells | 1 | 5627 | inactive
ADM2 | 0.19 | migration z between -2 and 2; enough cells | 0.94 | 5144 | inactive
SPPL2B | 0.05 | migration z between -2 and 2; enough cells | 0.81 | 5984 | inactive
CLDN5 | 0 | migration z between -2 and 2; enough cells | 0.88 | 6148 | inactive
ITGA2 | -0.94 | migration z between -2 and 2; enough cells | 0.62 | 4772 | inactive
MSTN | -0.7 | migration z between -2 and 2; enough cells | 0.67 | 4812 | inactive
HTR2C | 1.35 | migration z between -2 and 2; enough cells | 1.06 | 5351 | inactive
PRNP | 2.31 | migration z above 2; enough cells | 1.48 | 4935 | active
DDX39A | 1.53 | migration z between -2 and 2; enough cells | 1.1 | 5863 | inactive
GON4L | -0.77 | migration z between -2 and 2; enough cells | 0.68 | 6096 | inactive
NME1-NME2 | 0.68 | migration z between -2 and 2; enough cells | 1.06 | 5800 | inactive
OR4A47 | -0.66 | migration z between -2 and 2; enough cells | 0.72 | 5894 | inactive
KANSL3 | 2.5 | migration z above 2; enough cells | 1.53 | 7823 | active
AGAP6 | 1.01 | migration z between -2 and 2; enough cells | 1.15 | 6501 | inactive
IGF2R | 0.26 | migration z between -2 and 2; enough cells | 0.86 | 6794 | inactive
HCN4 | -0.05 | migration z between -2 and 2; enough cells | 0.8 | 5448 | inactive
ADAMTS9 | 0.73 | migration z between -2 and 2; enough cells | 0.94 | 5904 | inactive
TERF2 | 1.36 | migration z between -2 and 2; enough cells | 1.24 | 6115 | inactive
OR9G4 | 2.07 | migration z above 2; enough cells | 1.43 | 6748 | active
TBCEL | -1.2 | migration z between -2 and 2; enough cells | 0.57 | 6112 | inactive
ACP6 | 1.04 | migration z between -2 and 2; enough cells | 1 | 6690 | inactive
PRAMEF1 | -0.3 | migration z between -2 and 2; enough cells | 0.81 | 5006 | inactive
PTPRE | -1.35 | migration z between -2 and 2; enough cells | 0.54 | 3913 | inactive
LONP2 | -1.3 | migration z between -2 and 2; enough cells | 0.55 | 4882 | inactive
MICOS13 | 1.25 | migration z between -2 and 2; enough cells | 1.21 | 5600 | inactive
GET4 | 0.3 | migration z between -2 and 2; enough cells | 0.96 | 6259 | inactive
PLEKHA8P1 | 0.9 | migration z between -2 and 2; enough cells | 1.12 | 4314 | inactive
SDHAF1 | 0.62 | migration z between -2 and 2; enough cells | 1.05 | 3949 | inactive
MRPS25 | 1.58 | migration z between -2 and 2; enough cells | 1.29 | 5466 | inactive
YY1 | 0.8 | migration z between -2 and 2; enough cells | 0.96 | 6516 | inactive
CSF2 | 0.78 | migration z between -2 and 2; enough cells | 0.96 | 4708 | inactive
DIPK1B | 1.14 | migration z between -2 and 2; enough cells | 1.18 | 6716 | inactive
SELE | 1.25 | migration z between -2 and 2; enough cells | 1.21 | 5766 | inactive
IL16 | 0.9 | migration z between -2 and 2; enough cells | 1.12 | 5046 | inactive
CACNA1S | -0.26 | migration z between -2 and 2; enough cells | 0.76 | 5026 | inactive
TTC12 | -0.46 | migration z between -2 and 2; enough cells | 0.76 | 6524 | inactive
GRIP1 | 0.23 | migration z between -2 and 2; enough cells | 0.94 | 5095 | inactive
STK31 | -0.44 | migration z between -2 and 2; enough cells | 0.72 | 4592 | inactive
TAS2R42 | 2.06 | migration z above 2; enough cells | 1.42 | 6043 | active
TTC13 | -0.3 | migration z between -2 and 2; enough cells | 0.81 | 5010 | inactive
SCNN1D | -0.44 | migration z between -2 and 2; enough cells | 0.72 | 6552 | inactive
COL10A1 | -0.64 | migration z between -2 and 2; enough cells | 0.72 | 5166 | inactive

Laid out differently: 4 of the entries above.
| target gene | migration robust z-score | migration class with cell-count check | migration relative to mock | nuclei per well, duplicate mean | Outcome |
| --- | --- | --- | --- | --- | --- |
| CSF2 | 0.78 | migration z between -2 and 2; enough cells | 0.96 | 4708 | inactive |
| DIPK1B | 1.14 | migration z between -2 and 2; enough cells | 1.18 | 6716 | inactive |
| SELE | 1.25 | migration z between -2 and 2; enough cells | 1.21 | 5766 | inactive |
| IL16 | 0.9 | migration z between -2 and 2; enough cells | 1.12 | 5046 | inactive |
